The values below come from patent publication US8343580B2, “Organometallic compounds” (Rohm and Haas Electronic Materials LLC, priority 2009, dated 2013).

Molecules are shown by their SMILES.

Data set [1] can be described thus: Resistivity of Ru films grown by DLI deposition, 4-point probe method. The following applies: deposition temperature 350° C., procedure of Example 12. As for the experimental part: Ruthenium films were grown using a solution of ruthenium carbamoyl precursor from Example 1 in a solvent using a DLI system. The solvent was purified by distillation from calcium hydride under inert nitrogen gas atmosphere. The freshly distilled solvent was used for preparing the diluted solution of ruthenium carbamoyl precursor, N,N′-di-tert-butylacetamidinato-N,N′-di-tert-butylacetamidinatocarbamoyl dicarbonyl Ruthenium(II). Suitable solvents were chosen from THF, toluene, a mixture of cyclohexylbenzene and bicyclohexyl (9:1, v/v), 1,2,3,4-tetrahydronaphthalene, or diethylbenzene. In one experiment, the concentration of the ruthenium carbamoyl precursor was 0.08 M in a mixture of cyclohexylbenzene and bicyclohexyl (9:1, v/v). The solution was filtered in order to ensure particle-free environment. The solution was then transported from its container to a vaporizer unit of the DLI system. The vaporization temperature was set at 100° C. to 160° C. Ammonia was used as a second reactant to deposit metallic ruthenium films. In some deposition runs, O2 at low concentrations in N2 (0-30% v/v, preferably 1-10%) was used as the second reagent. The reactor was enabled for depositions in either of ALD, CVD, Pulse CVD, or AVD modes. The carrier and purging gases used were N2 or argon or helium, and their flow rates ranged from 50 to 500 sccm, respectively. […]

A short description of data set [2]: ALD growth of ruthenium films with ammonia as second precursor. The following applies: wafer at 300° C. As for the experimental part: Ruthenium films are grown using the N,N′-di-tert-butylacetamidinato-N,N′-di-tert-butylacetamidinatocarbamoyl dicarbonyl ruthenium(II) (“Ru(AMD)-Cbm”) from Example 1. Ru(AMD)-Cbm (1 g) is placed into a source boat from an ASM F-120 ALD reactor under N2. The source temperature is set at 140° C. Ammonia is used as the second precursor to affect the atomic layer deposition of ruthenium films. The primary and secondary purging gases are N2, and their flow rates are set at 400 and 300 sccm, respectively. A 10 cm (4 inch) diameter wafer of p-type silicon (Cz, single side polished) is placed in the ALD chamber and heated at 300° C. The pulse sequence is adjusted as follows: precursor/N2 purge at 1 s/3 s, while the ammonia flow from a high purity ammonia source is kept on at 40 sccm during the deposition. 1000 Cycles are applied for the Ru thin film deposition.
A smooth, highly uniform Ru film is expected to be grown on the wafer after 1000 cycles. The film thickness is expected to be more than 125 nm, thereby affording the un-optimized thin film growth rate of about 1.25 Å/cycle.

Consider `CC(=NC(C)(C)C)[N]([Ru][N](C(C)=NC(C)(C)C)C(C)(C)C)C(C)(C)C.[C-]#[O+].[C-]#[O+]` [Ru-AMD, bis(N,N′-di-tert-butylacetamidinato) dicarbonyl Ruthenium(II), reference compound], for which, in data set [1], the Ru film resistivity was greater than 500 μohm·cm.
As to `CC1=[N+](C(C)(C)C)[Ru-4]2([C]#[O+])([C]#[O+])([C](=O)N1C(C)(C)C)[N](C(C)(C)C)C(C)=[N+]2C(C)(C)C` [Ru-Cbm, N,N′-di-tert-butylacetamidinato-N,N′-di-tert-butylacetamidinatocarbamoyl dicarbonyl Ruthenium(II)], the Ru film resistivity in data set [1] came to 200 μohm·cm. The “Un-optimized thin film growth rate” value in data set [2] (1000 cycles) was “about 1.25 Å/cycle”. The Film thickness result in data set [2] (after 1000 cycles, source 140° C.) was “more than 125 nm”.
